# Percent effect of library compounds

Amino acid sequences for entries named in this document (tags omitted). Residues count along the entry.
UniProt A4I591, 1-473: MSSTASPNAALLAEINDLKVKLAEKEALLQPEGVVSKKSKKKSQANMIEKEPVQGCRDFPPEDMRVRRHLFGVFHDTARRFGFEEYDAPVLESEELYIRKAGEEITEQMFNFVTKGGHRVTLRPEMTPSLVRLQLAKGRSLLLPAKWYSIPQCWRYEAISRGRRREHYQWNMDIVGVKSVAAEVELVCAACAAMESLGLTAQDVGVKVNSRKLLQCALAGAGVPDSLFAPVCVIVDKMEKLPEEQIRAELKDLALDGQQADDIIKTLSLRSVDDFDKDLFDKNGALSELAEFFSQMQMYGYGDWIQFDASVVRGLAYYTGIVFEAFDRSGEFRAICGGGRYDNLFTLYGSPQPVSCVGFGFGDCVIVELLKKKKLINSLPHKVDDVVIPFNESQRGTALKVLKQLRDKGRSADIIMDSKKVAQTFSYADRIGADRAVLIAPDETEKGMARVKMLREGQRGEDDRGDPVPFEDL
UniProt I6X8D2, whole entry: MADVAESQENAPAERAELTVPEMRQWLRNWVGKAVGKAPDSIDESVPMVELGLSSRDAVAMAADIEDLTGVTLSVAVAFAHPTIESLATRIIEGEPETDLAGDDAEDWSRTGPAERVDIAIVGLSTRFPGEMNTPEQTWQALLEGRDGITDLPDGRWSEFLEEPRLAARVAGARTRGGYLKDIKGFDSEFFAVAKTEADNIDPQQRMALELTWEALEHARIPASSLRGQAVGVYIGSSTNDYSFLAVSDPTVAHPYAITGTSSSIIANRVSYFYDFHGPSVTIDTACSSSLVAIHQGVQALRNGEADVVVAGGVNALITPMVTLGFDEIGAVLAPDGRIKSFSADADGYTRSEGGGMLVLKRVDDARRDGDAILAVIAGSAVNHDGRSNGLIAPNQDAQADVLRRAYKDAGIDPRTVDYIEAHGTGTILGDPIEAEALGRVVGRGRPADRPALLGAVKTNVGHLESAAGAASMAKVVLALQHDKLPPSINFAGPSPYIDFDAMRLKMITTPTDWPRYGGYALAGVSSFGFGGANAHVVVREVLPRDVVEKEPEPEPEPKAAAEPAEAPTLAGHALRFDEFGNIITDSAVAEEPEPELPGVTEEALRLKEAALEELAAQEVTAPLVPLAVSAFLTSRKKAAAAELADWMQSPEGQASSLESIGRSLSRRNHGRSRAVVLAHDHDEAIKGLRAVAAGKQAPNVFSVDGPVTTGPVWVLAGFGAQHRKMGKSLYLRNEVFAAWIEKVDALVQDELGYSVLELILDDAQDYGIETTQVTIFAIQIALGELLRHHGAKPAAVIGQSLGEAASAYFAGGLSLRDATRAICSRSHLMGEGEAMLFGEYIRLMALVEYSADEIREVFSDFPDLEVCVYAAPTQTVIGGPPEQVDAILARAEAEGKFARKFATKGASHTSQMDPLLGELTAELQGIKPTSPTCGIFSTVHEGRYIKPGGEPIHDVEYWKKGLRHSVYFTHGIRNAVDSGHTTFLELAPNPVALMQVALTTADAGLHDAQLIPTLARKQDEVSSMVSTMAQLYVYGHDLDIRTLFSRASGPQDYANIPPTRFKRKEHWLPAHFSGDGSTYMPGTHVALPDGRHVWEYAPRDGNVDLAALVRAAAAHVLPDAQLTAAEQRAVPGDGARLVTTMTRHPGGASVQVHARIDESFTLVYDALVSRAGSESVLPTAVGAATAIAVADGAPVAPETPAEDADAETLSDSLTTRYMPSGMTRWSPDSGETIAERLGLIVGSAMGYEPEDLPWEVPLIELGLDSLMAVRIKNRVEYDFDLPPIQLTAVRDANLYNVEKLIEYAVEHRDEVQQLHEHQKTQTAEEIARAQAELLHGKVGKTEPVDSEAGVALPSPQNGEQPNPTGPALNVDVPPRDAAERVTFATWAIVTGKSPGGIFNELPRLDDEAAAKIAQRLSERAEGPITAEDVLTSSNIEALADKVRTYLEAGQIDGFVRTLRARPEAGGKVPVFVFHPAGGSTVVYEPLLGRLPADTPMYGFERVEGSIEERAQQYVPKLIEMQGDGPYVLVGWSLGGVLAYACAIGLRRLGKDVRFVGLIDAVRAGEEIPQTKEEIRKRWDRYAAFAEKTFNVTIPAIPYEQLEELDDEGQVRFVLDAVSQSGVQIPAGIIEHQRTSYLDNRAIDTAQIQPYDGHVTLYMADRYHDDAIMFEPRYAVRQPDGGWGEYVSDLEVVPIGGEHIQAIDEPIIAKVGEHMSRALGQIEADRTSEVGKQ

A: 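Enzyme assay of histidyl-tRNA synthetase; the read-out is not stated. Target: Histidine-tRNA ligase, Leishmania infantum (UniProt A4I591). Compounds at 30 µM. Higher reads as stronger inhibition (inferred: compounds with an IC50 in retests scored well above the rest). The assay is labelled LdHisRS but filed under L. infantum. Size under these conditions: about 69,000 compounds, about 410 of them at 50% or above in at least one test.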
B: 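Enzyme assay of the thioesterase domain of polyketide synthase 13; the read-out is not stated. Target: Polyketide synthase Pks13, Mycobacterium tuberculosis (UniProt I6X8D2). Compounds at 30 µM. The record gives no direction; the compounds picked for IC50 retests had high values, so higher reads as stronger inhibition. Size under these conditions: about 67,000 compounds, about 300 of them at 50% or above in at least one test.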
C: 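Cell assay of Leishmania donovani living inside macrophages; the read-out is not stated. Tested at 30 µM. The record gives no direction; compounds that gave an IC50 in retests scored well above the rest, so higher reads as stronger inhibition. Of about 69,000 compounds tested this way, about 1,000 (1.5%) reached 50% or more in at least one test.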

Each number is a percent effect as filed.
The record does not define 0% and 100%; most values in the screen are far below 50% and negative numbers occur (in some assays of this library far below -100).
This is an unselected part of the compounds tested.
Two or more numbers in one place are separate tests of the same structure; such repeats can differ widely.
A dash means the value is not listed here; it may have been measured.

Compound | A | B | C
COCC1CN(Cc2cc(C)on2)Cc2cn(CC3CCCC3)nc21.O=C(O)C(F)(F)F.O=C(O)C(F)(F)F (stereo not shown) | - | - | 15.03
CN1CCN(CC2CC2)C(=O)c2cnc(N3CC[C@@H](O)C3)nc21 | 1.351 | -5.953 | -15.55
CS(=O)(=O)N1C[C@H]2N(c3ncccn3)CCC[C@@]2(C(=O)NCC2CC2)C1 | 6.364 | - | -
CC(O)(CNc1ccc(Cl)c(C#N)n1)c1ccsc1 (stereo not shown) | 9.375 | 4.913 | -58.52
CCCC(=O)N(CCCN1CCOCC1)c1nc2c(F)cccc2s1 | 12.17 | -21.86 | -
Cn1cnc(S(=O)(=O)Nc2cc(C(N)=O)ccc2Cl)c1 | 19.44 | -0.01724 | 12.49
O=C(NCCc1c[nH]cn1)c1ccc(S(=O)(=O)NC2CCOC2)cc1 (stereo not shown) | 3.279 | -10.68 | 37.33
Cn1cccc1-c1cc(C(=O)N2CCCC2c2cccnc2)[nH]n1 (stereo not shown) | 24.76 | 17.65 | 21.45
O=S(=O)(c1ccc(-c2cnco2)cc1)N1CCCC2(CCNCC2)CC1 | 41.46 | 0.6006 | 14.58
CC(O)CN1CCC(CNCc2cn(-c3ccccc3)nn2)CC1 (stereo not shown) | 11.61 | -20.28 | -2.601
COc1cccc(CNC(C)C)c1OCc1ccc(C)cc1.Cl | - | - | -13.77
CC(C)C(NC(=O)Cn1nc2c(cc1=O)CCCC2)C(=O)O (stereo not shown) | 6.897 | -9.112 | -4.359
CC(=O)N1CCN(C(=O)CNc2ccc3sccc3c2)CC1 | 27.19 | 10.58 | -8.467
CCn1nc(C)cc1C(=O)N1C[C@@H]2C[C@@H](c3noc(C)n3)O[C@@H]2C1 | 11.54 | -4.772 | -
CCc1nc(CNC2CCN(S(C)(=O)=O)CC2)cs1 | 6.122 | -24.05 | -8.077
O[C@H]1CC[C@@H](Cc2cc(-c3ccc(F)cc3)on2)O[C@@H]1CNCC1CC1 | 22.22 | -28.67 | 42.76
Cc1nc(C(C)C)sc1C(C)N(C)C(=O)c1ccc(=O)n(C)n1 (stereo not shown) | 5.181 | - | 18.46
O=C(Cc1ccncc1)N1C[C@@H]2CC[C@H](C1)N(Cc1ccccc1)C2=O | 6.557 | 13.94 | -
CC(C)n1nc2c(cc1=O)CN(c1ncnc3sccc13)CC2 | 38.74 | -15.02 | 45.54
COCCN1C(=O)CC[C@]12CC[C@@H](NCc1nccs1)CC2.O=C(O)C(F)(F)F | - | - | 0.8427 & -3.949
Cn1ncc(NC(=O)Cn2ccc(-c3ccc(F)cc3)n2)n1 | 13.33 | -21.85 | -4.461
CC(=O)N(Cc1noc(C2CC2)n1)C1CCN(CC2CCOCC2)C1 (stereo not shown) | 15.18 | -17.27 | 6.214
COCC(=O)Nc1ccc(Oc2ccsc2C(=O)O)cc1 | 14.58 | -11.33 | 8.384

The first 2 entries again:

Compound	A	B	C
COCC1CN(Cc2cc(C)on2)Cc2cn(CC3CCCC3)nc21.O=C(O)C(F)(F)F.O=C(O)C(F)(F)F (stereo not shown)	-	-	15.03
CN1CCN(CC2CC2)C(=O)c2cnc(N3CC[C@@H](O)C3)nc21	1.351	-5.953	-15.55

Measurements from “University of Dundee, Small-Polar-MMV Screening Library” (2021), ChEMBL document CHEMBL3988442.